# Assay results published in patent US20130266605A1, “PEPTIDE INHIBITORS OF CD40L SIGNALING AND USES THEREFOR” (PHYLOGICA LIMITED, priority 2010, published 2013).
# These are yes or no findings as the source states them, for the method shown. Some results given as binding are weak or reduced against the parent protein; the word gives no strength.
# T1: CD40 ligand (UniProt P29965 108-261, limits assumed)
# T1 sequence (looked up): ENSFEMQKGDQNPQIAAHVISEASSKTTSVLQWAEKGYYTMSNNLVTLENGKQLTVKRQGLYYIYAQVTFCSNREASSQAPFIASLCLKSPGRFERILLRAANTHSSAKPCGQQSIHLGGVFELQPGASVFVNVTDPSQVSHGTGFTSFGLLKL
# Biological target: T1, CD40 ligand
# Experiment: phage display screen on CD40L
row,Binder,binding
1,M08_40L_0103_0720 (peptide) peptide: ELRLPETRKAQAALATKYGIYGFCYYHYWFNGRRILESPVDAMLESGEPDFPFMLCWANENWTSNSC,binds
2,ELLHLPRPGFCDARSHGDSNFEDLFYFILCGTHFNSC [M08_40L_0103_0717],binds
3,ELPHLPRPGFCDARSHGDSNFEDLFYFILCGTHFNSC [M08_40L_0103_0723],binds
4,M08_40L_0104_0739 (peptide) peptide: ELLLQGEDMIEQLGRAHMSWGLGSADRWDLDQTTGIITWTFPDKTAAAPAQILGSFSPGSGSWLWAWANKSNSC,binds
5,M08_40L_0104_0740 (peptide) peptide: ELRVEWDYWYPVDYRFSGNDLITNHLTFYQFHHGELFDEPQWPRGIVIMGNSC,binds
6,ELGVWMDGWVCGWLGLDEWIGTRVEGGQRDVDGCNSC [M08_40L_0104_0729],binds
7,M08_40L_0104_0738 (peptide) peptide: ELHFKPKQLLGLTATPEWMDGLNVQDKFFEGRIAAELRLWEALENDLLCPFHYFGIPDGTDLTSNSC,binds
8,M08_40L_0104_0733 (peptide) peptide: ELPLDEVNYSYPVVAIKEIHVWKSQDYDSGYPYPTPAPYYYYDPYWYGVWPGPYWHRPLGPVRRNSC,binds
9,M08_40L_0104_0737 (peptide) peptide: ELLPYEELDGVSIDLDGLTQLWNDGVSKEPFYEMDADLHLIDPNALIDWLGAWDQSDLTGNSC,binds
10,M08_40L_0104_0727 (peptide) peptide: ELLSWVTDNCDFTGSITERPYNGPWMQFDRDIDPSVLDPQADSDVSLDEVVEYDCRIDETDLEEWISDHEEFPDLVSLLDISVDGERWIPLHGIYKWRADEGNSC,binds
11,M08_40L_0103_0719 (peptide) peptide: ELRDGNFDDTDRVGTVHDMRFVFLDNDTKLLFCTAYDDEWDPYIDDFATKIPDELDLFKCNSC,binds
12,M08_40L_0103_0722 (peptide) peptide: ELHPEQKRLSTLSFYKEAQDEVTFYRDWDADSDSPDGELFGGSLANFEPTLETYDPDDAAPWAWNLPSDLFQEQFENWSEFHKILQNSNSC,binds
13,ELLMRDWNYPGWVMSDWACENDFLLNKVLKRDWNYPGWVMSDCGNSC [M08_40L_0103_0724],binds
14,M08_40L_0104_0735 (peptide) peptide: ELLMNEESTEFIARGHLTDDWDKVFFDSLNGGMEYGPGSFLGMGSPFNLMDHFSVHRYYQAGGDTDFTDEQYYKIFARNSC,binds
15,M08_40L_0104_0736 (peptide) peptide: ELRHDGYTFSPHQAMPKDEFGEWPVPVFPNGDCYFFFHQDFSWGLLGDPWKCAITVFGESNSC,binds
16,M08_40L_0104_0741 (peptide) peptide: LELLFGGSLVNLEPTLETYDPDDAAPWAWNLPSDLFQEQFENWSEFHKILQNSNSC,binds
17,M08_40L_0103_0725 (peptide) peptide: ELLWNDGVSKEPFYEMDADLHLIDPNALIDWLGAWDQSDLTEIRENVAPFLGNLIFRQTDDWHDYRYYSNSC,binds
18,ELLWRLNEWNYSDAELLSLIEWCIDHGNSC [M08_40L_0103_0721],binds
19,M08_40L_0104_0730 (peptide) peptide: ELLRPHDPEKAKALLAEAGVSDVSLDYVVNAGNEVDEQIAVLLQQQLGQAGITVNLQKMDPSMTWDMLVNGEYDLSVMYWTNDILDPDQKTTFVLGHDVNMNYRRNSC,binds

# Continued, values first:
row,binding,Binder
1,binds,ELLWCQHGGFKYGTSLTDMFDQFKSEYCDGCN [M09_40L_0104_0777]
2,binds,M09_40L_0104_0769 (peptide) peptide: ELLFHGHDQFSQVEGVCAEVFNERGFGLDFLGGHAELVHDDLLDFFFNGHGSLQCN
3,binds,M08_40L_0104_0749 (peptide) peptide: ELLIDRWYWPNDVPSSLVPGYNATPNPDVGGPLFGDNEDLNQIVDEGWWIFYEESRNSC
4,binds,M09_40L_0103_0764 (peptide) peptide: ELLWDDAIGCVRPRYPNGEWVENYSCTYDYPDRSGPWWDAVFYEGDSLQYSSFVPQDVAGLMANTGGPDGFVKWLDHLFDGHYSQSN
5,binds,M08_40L_0104_0746 (peptide) peptide: ELLCQPLALSGIDNPFEWIDIAKGAPHVSISLGEGVDIYSPDDEPASNGPLPDDVLDLFWCFGNSC
6,binds,ELPKFDEYLSDDNNPDEPGWFMQWLQQTCDLFAYTFDEAWFDIGTPQSN [M09_40L_0104_0773]
7,binds,M08_40L_0104_0745 (peptide) peptide: ELPTYAFERERFWLDVEEGSAGGSGVSGMWGGPLWEAVECGDAGACELWNWSLDVLLSNSC
8,binds,ELLWDVKTYVSDQDGTGWDLVEQYQNKYGMPNPDGTIGKTLWLDYIQCN [M09_40L_0104_0785]
9,binds,M08_40L_0104_0743 (peptide) peptide: ELLARSGNWKNLWDDAIGCVRPRYPNGEWVENYSCTYDYPDRSGPWWDAVFYEGNSLQYSSFVPQDVAGLMANTGGPDGFVKWLDHLFDGHYSQSNSC
10,binds,M09_40L_0103_0752 (peptide) peptide: ELLCRVSAAEPPAGGRAAVRLLQGYLWYPEGADVDLESFLPRELDLSQAPSLSEEDAHVLWDQVQPPFAFFENGN
11,binds,M09_40L_0103_0761 (peptide) peptide: ELLFGGSLVNLEPTLETYDPDDAAPWAWNLPSDLFQEQFENWSEFHKILQNSN
12,binds,M09_40L_0104_0771 (peptide) peptide: ELLQNYALIHDQDFGGWQQWWDLHNVEGEPSTGLLVEDGNLALQAALDGLGIALLRPSLVDVFVDEGGLSRLFDHQLEDGRDYYLCHLVEQPLSEAEERN
13,binds,M09_40L_0103_0759 (peptide) peptide: ELLFDHFRFCLTEFDRFDFSDHHGYLERNDWTIHDFAGNGATGQFAVELTPDIIEETYRKAQDSANAVGDTPASREFEFKRYYYSRN
14,binds,M09_40L_0104_0784 (peptide) peptide: ELLWIGINTNGMQWNGMQWQRMEWNGMEWHKPEWYGMEWNGMEWNGMEWKGIECN
15,binds,M09_40L_0103_0760 (peptide) peptide: ELRWLVGTYSYQNDAYRQLFEPDDESALLQELSEYLDDHGSEPIIYYGGNYFDEQCLSRRFDEHGN
16,binds,ELRGCHSNTHQYAFSPGSPFFPFAISLPWRHDSDVEAAPCN [M09_40L_0104_0778]
17,binds,M08_40L_0104_0742 (peptide) peptide: ELPCYDMHGLPIETKVEEQLGFESKKDIQEFGEEAFIEECKRFADDNLDGLQSDFQSFGVWMDWDNPYKTVDPSYMEAAWWAFSEVQSATALAGDGSSNSC
18,binds,M09_40L-0103_0754 (peptide) peptide: ELRMISYCMASDPFGHAVRDYYLGELEEPLIDRDGDETREHSIEEWYFGEYQRDEWFESWLEGPLLDMGN
19,binds,M09_40L_0104_0772 (peptide) peptide: ELPLAAGTSWWEKELFMGAPDWSQFEKYPYPSLSPEEQSFIDNEVEVLCSN
20,binds,M09_40L_0104_0767 (peptide) peptide: ELLGEYEHAARYVSEVECNWKTFAGNYSECDHCHANHQDWITDIELAEPELEVNDYHWILHYTHDEDVEDEMRIHDEHEAKFYYFWPNFTGN
21,binds,M09_40L_0103_0762 (peptide) peptide: ELQRLAERYLSESYWGDVIEASDDVWELVACPVDGALDAALWDAWLESLEEGRYSN
22,binds,M09_40L_0104_0776 (peptide) peptide: ELLQTSAFEPDYVGERLDEWAWIVYPWNFIEDLEELLEGEDDPEHRQKEYIAWTKSSDWKCN
23,binds,M09_40L_0103_0753 (peptide) peptide: ELLRDGNFDDTDRVGTVHDMRFVFLDNDTKLLFCTAYDDEWDPYIDDFATKIPDELDLFISN
24,binds,M09_40L_0104_0781 (peptide) peptide: ELLLERLNGVSVDWSNLYNSWNPDKETLYELDSDLHLADPAYVSTMDAWDTADVEEVQTEIAPWFGNSLSRNHSEPPADWADQYQYYSLWDIYGN
25,binds,M09_40L_0104_0770 (peptide) peptide: ELHPVGETGPQLNATDHFHSTGHPVIRSFEPGEGWFWDYTTSELYESGPALAPPPNATDHFHSTGHPVIRSFEPGEGWFWDYTSN
26,binds,M09_40L_0104_0774 (peptide) peptide: ELPLGEYEHAARYVSEVECNWKTFAGNYSECDHCHANHQDWITDIELAESELEVNDYHWILHYTHDEDVEDEMRIHDEHEAKFYYFWPNFTSN
